# Library screen at single concentrations

Sequences of proteins named here, by UniProt entry; tags and fusion partners are left off. Residues count along the entry.
UniProt Q4DA54, 1-478: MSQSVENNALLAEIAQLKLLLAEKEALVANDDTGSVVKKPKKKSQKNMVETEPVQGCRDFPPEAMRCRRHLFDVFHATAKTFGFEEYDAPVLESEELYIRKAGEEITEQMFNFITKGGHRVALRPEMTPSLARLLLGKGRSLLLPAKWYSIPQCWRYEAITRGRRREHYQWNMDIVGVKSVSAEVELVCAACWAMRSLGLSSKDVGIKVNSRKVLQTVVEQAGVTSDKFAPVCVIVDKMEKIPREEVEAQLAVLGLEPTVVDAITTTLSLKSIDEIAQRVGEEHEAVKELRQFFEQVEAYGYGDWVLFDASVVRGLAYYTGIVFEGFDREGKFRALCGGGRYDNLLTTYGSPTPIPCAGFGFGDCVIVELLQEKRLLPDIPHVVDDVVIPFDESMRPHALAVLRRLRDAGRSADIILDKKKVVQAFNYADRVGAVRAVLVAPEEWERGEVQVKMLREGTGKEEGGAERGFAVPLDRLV

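Enzyme assay of histidyl-tRNA synthetase; the read-out is not stated. Target: Histidine-tRNA ligase, Trypanosoma cruzi CL Brener (UniProt Q4DA54). Compounds at 30 µM. Higher reads as stronger inhibition (inferred: compounds with an IC50 in retests scored well above the rest). Size under these conditions: about 69,000 compounds, about 31 of them at 50% or above in at least one test.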

The filed quantity is “Percent Effect” (%). The controls that fix the scale are not given in the record; negative values are as filed. This is an unselected part of the compounds tested.

SMILES: Cc1cc(C(=O)N2CCC3(CC2)c2nc[nH]c2CCN3CC(C)C)no1
percent effect: 0%

SMILES: CN1CCC/C1=N\S(=O)(=O)c1ccc(NC(=O)c2ccc(Cl)s2)cc1
percent effect: 4.843%

SMILES: CC(=O)N(C)c1nc(Cn2nnnc2C(C)C)cs1
percent effect: 10.89%

SMILES: O=C(C1CCC1)N1CCN(c2snc3ccccc23)CC1
percent effect: 0.3759%

SMILES: COc1ccc(CCN2CCOC(Cn3nc(C)nc3C)C2)cc1 (stereo not shown)
percent effect: 5.155%

SMILES: Cc1nc2c(c(N3CCC(O)(CN4CCCC4)CC3)n1)CCNCC2
percent effect: 11.11%

SMILES: O=C(CN1C(=O)c2ccccc2CS1(=O)=O)c1ccccc1
percent effect: -3.941%

SMILES: COc1cccc(-c2cc(NCCN(C)C)nc3[nH]ccc23)n1
percent effect: 10.34%

SMILES: O=C(NC1CCN(c2ncccc2F)C1)c1cccc(-n2ccnn2)c1 (stereo not shown)
percent effect: 11.67%

SMILES: CC(=O)Nc1nc(C(=O)NC(C)c2ccc(F)c(F)c2)cs1 (stereo not shown)
percent effect: -2.521%

SMILES: O=C(Cc1ccc(F)cc1Cl)N[C@@H]1CCNC[C@H]1O
percent effect: 1.657%

SMILES: CCN(CC)C(=O)CSc1ncc[nH]1
percent effect: 6.061%

SMILES: Cc1cnn(CCNCc2c(C)nn(Cc3ccccc3)c2C)c1
percent effect: 0.4878%

SMILES: CS(=O)(=O)N[C@@H]1COC[C@@H]2CN(Cc3ccoc3)C[C@@H]21
percent effect: 5.714%

SMILES: CC1CCN(c2cc(NC(=O)C3CC3)ncn2)CC1
percent effect: 3.415%

SMILES: O=C(N1CCCC1)N1CC[C@H]2[C@H]1CCN2c1ncccn1
percent effect: 6.796%

SMILES: Cc1nc(C2CCCN(C(=O)c3ccc(OCC4CC4)nc3)C2)no1 (stereo not shown)
percent effect: 4.624%

SMILES: Cc1cccc(CN2CCC(n3cc(CCO)nn3)CC2)c1C
percent effect: -1.734%

SMILES: NC(=O)c1ccc(N2CCN(Cc3c(Cl)cncc3Cl)CC2)nc1
percent effect: 0.4926%

SMILES: COc1ccc(C2OC(COc3ccccc3Br)=NN2C(C)=O)cc1 (stereo not shown)
percent effect: 3.261%

SMILES: CC1CCN(C(=O)c2ccnc(-n3cncn3)c2)c2ccccc21 (stereo not shown)
percent effect: -6.404%

SMILES: CNC(=O)c1cccc(Nc2cnn(C)c2)c1
percent effect: 5.682%

SMILES: Cc1cc(C)nc(N2CCOC(C)(C(=O)N(C)C)C2)n1 (stereo not shown)
percent effect: 5.639%

SMILES: CC(C)Cc1nc(OCC(=O)O)c(C#N)c2c1CCCC2
percent effect: 3.614%

SMILES: COc1ccccc1CNC(=O)c1[nH]ncc1Cl
percent effect: 4.911%

SMILES: O=S(=O)(c1cccs1)N1CCCC(c2nccs2)C1 (stereo not shown)
percent effect: 8.209%

SMILES: O=S(=O)(C1CC1)N1CCOCC2(CCN(c3ccccn3)C2)C1 (stereo not shown)
percent effect: 0.5464%

SMILES: CC(C)c1nc(CN2CCOCC2)cs1
percent effect: -5.042%

2 of the entries, repeated:

* COc1ccc(C2OC(COc3ccccc3Br)=NN2C(C)=O)cc1 (stereo not shown) | 3.261%
* Cc1cnn(CCNCc2c(C)nn(Cc3ccccc3)c2C)c1 | 0.4878%

The values are deposited in ChEMBL (CHEMBL3988442, “University of Dundee, Small-Polar-MMV Screening Library” (2021)).